According to PMC8800482:
Results are given in words; binding and its absence hold for the method and conditions named. Binding seen in cells or lysates may run through a third protein. Some binding calls cover weakened binding; strength is not graded here.

By UniProt entry, the sequences of proteins in these tests, tags left out. Where a name states a change or a piece, a line headed by the entry shows the natural chain unless it says otherwise.
UniProt O75030: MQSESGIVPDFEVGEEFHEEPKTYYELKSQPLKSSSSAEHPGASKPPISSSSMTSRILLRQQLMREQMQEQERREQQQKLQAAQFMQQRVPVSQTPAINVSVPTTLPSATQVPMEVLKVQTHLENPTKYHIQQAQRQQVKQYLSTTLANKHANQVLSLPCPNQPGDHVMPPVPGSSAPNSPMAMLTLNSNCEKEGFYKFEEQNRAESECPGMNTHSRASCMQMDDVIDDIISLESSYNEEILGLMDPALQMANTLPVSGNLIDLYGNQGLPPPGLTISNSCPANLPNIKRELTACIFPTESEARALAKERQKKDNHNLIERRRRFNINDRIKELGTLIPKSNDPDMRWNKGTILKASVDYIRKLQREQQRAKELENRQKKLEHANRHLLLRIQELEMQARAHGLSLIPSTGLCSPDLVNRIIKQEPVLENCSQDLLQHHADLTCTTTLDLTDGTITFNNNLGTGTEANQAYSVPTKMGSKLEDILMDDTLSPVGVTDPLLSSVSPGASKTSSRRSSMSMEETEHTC

Key:
[1] = molecular target: MITF-Y360F, in HEK293T cells (human) (UniProt O75030); test: co-IP; exogenous; HEK293T cells with indicated constructs (Figures 4Ai, 7B, 8Cii); extracts in buffer with 1% NP-40, antibody overnight at 4°C, protein G magnetic beads, immunoblot
[2] = molecular target: Microphthalmia-associated transcription factor (MITF), wild type, in HEK293T cells (human) (UniProt O75030); test: co-IP; HEK293T cells; autophagic receptors co-introduced with His-CLK4; MITF immunoprecipitated and the receptors probed (Figure 7Ai-iii)

Sequestosome 1 (SQSTM1), introduced into HEK293T cells (from UniProt Q13501 1-440)
binding [1]: no binding | binding [2]: binds
